Results from article PMC6739395.
No constants are given. Whether binding was seen depends on the method and setting. Some binding calls cover weakened binding; strength is not graded here.

Chains of the proteins cited; added tags and fusions are not shown. Lines headed by an entry give the natural chain unless they say otherwise; changes in a name come on top. Residues count along the entry.
UniProt Q9UGM3: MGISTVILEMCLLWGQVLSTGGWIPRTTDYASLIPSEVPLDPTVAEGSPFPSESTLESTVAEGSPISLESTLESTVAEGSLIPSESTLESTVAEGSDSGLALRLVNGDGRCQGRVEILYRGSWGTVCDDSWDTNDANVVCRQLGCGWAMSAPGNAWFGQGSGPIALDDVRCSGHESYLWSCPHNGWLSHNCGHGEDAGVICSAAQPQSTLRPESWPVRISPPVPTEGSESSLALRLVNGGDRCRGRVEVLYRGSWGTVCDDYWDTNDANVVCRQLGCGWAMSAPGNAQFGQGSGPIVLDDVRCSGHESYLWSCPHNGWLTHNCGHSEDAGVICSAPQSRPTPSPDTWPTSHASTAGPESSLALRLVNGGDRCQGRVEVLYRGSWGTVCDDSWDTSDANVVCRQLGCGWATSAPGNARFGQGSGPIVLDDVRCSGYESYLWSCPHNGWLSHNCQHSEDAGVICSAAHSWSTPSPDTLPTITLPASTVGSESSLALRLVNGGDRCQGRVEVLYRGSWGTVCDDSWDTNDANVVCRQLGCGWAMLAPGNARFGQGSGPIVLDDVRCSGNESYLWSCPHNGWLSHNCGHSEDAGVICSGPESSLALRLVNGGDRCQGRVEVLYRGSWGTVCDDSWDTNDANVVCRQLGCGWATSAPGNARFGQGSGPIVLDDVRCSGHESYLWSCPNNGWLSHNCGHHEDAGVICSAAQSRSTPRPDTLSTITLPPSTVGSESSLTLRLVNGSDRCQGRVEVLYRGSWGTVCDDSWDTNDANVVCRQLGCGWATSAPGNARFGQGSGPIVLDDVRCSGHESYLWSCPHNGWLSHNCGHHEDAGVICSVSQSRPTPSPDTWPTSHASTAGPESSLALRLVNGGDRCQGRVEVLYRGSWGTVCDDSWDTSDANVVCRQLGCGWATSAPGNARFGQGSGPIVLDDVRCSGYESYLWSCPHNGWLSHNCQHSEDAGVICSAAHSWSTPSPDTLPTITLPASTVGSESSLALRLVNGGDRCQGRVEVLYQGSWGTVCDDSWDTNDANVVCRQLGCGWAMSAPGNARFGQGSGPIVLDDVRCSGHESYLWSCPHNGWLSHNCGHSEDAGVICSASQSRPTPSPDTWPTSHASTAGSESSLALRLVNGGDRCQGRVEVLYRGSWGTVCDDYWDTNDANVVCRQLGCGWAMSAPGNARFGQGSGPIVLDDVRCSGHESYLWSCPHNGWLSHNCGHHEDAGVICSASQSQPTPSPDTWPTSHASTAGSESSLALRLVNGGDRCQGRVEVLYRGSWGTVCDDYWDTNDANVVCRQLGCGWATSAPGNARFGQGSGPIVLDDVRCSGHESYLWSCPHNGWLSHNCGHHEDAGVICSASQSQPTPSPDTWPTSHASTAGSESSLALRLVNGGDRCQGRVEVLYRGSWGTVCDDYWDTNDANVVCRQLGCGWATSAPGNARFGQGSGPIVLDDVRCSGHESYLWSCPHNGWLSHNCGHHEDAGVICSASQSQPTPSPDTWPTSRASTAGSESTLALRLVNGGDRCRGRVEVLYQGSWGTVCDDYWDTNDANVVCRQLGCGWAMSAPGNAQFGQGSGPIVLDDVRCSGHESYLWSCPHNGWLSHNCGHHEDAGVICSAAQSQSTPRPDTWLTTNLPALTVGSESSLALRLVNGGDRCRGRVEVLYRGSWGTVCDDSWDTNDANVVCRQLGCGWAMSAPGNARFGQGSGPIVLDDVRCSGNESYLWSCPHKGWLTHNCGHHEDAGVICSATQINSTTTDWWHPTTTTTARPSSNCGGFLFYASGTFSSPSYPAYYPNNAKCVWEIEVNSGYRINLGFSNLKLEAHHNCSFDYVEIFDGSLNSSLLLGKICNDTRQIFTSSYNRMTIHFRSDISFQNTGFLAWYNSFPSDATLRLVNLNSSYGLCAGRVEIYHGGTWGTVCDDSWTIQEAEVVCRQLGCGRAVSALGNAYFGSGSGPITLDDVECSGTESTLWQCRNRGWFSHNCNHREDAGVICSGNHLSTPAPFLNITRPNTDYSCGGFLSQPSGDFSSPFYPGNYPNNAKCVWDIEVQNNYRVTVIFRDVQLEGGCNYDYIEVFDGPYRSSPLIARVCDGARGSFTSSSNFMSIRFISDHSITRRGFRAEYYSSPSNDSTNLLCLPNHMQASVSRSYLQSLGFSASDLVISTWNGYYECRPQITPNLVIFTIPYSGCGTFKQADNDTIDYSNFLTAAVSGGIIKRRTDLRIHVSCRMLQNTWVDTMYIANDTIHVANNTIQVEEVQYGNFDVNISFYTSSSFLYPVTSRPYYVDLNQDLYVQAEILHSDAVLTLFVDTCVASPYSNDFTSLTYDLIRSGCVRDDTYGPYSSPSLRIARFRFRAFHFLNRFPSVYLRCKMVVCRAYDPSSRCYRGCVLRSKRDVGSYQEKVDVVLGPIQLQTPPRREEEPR
DMBT1 (Deleted in Malignant Brain Tumors 1) purified from human saliva: residues 20-2413 of Q9UGM3
recombinant truncated human DMBT1 (Met 1-Ser 220): residues 20-220 of Q9UGM3

Key:
Assay in all cases: far-Western, overlay or dot blot; dot-immunoblot: 2 µL of DMBT1 or other protein or peptide (400-500 ng) spotted on a nitrocellulose membrane, blocked with 5% BSA, incubated with undiluted PAO1 pili extract for 40 min at RT in PBS, bound pili detected with anti-PilA antibody; only the target purified
[1] = target: recombinant truncated human DMBT1 (Met 1-Ser 220) (human) (UniProt Q9UGM3)
[2] = target: de-N-glycosylated DMBT1 (salivary DMBT1 digested with PNGase F) (human) (UniProt Q9UGM3)
[3] = target: DMBT1 (Deleted in Malignant Brain Tumors 1) purified from human saliva (human) (UniProt Q9UGM3)

B1: P. aeruginosa PAO1 pili (Type IV pili, polymer predominately of the PilA subunit) (protein, UniProt P04739 7-149)
chain: FTLIELMIVVAIIGILAAIAIPQYQNYVARSEGASALATINPLKTTVEESLSRGIAGSKIKIGTTASTATETYVGVEPDANKLGVIAVAIEDSGAGDITFTFQTGTSSPKNATKVITLNRTADGVWACKSTQDPMFTPKGCDN
With B1 the binding [1] was “no binding (tested: 500 ng spotted)”, the binding [2] was “binds” and the binding [3] was “binds”.
